Reference: the supplement of paper PMC12595434, “Development of retinoid nuclear receptor pathway antagonists through targeting aldehyde dehydrogenase 1A3” (iScience, 2025)
This is one part of the list. Single values of this set are uncertain.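 Tm was set to 64 °C where no melting was found, and many curves are irregular.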

Protein sequences, listed by entry. Tags and fused reporters are not part of them. Lines headed by an entry give the natural chain unless they say otherwise; changes in a name come on top.
UniProt P52298: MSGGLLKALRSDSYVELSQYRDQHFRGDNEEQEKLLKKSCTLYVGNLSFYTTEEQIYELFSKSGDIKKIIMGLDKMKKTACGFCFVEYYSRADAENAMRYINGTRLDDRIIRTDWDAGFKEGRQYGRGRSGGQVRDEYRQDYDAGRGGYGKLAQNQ
UniProt P56282: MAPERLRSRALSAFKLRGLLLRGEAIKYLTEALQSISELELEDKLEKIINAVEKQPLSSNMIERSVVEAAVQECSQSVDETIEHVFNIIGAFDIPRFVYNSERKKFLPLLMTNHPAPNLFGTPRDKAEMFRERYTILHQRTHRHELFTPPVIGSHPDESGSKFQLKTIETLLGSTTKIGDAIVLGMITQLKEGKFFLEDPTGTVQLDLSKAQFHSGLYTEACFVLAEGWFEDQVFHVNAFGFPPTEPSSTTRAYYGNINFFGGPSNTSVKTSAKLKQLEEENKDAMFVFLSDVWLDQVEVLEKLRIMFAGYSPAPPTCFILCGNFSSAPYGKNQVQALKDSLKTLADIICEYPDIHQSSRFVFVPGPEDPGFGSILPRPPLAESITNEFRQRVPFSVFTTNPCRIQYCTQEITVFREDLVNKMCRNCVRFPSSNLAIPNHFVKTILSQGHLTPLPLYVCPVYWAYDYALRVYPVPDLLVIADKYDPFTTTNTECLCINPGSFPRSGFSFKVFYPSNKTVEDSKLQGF
UniProt P61619, whole entry: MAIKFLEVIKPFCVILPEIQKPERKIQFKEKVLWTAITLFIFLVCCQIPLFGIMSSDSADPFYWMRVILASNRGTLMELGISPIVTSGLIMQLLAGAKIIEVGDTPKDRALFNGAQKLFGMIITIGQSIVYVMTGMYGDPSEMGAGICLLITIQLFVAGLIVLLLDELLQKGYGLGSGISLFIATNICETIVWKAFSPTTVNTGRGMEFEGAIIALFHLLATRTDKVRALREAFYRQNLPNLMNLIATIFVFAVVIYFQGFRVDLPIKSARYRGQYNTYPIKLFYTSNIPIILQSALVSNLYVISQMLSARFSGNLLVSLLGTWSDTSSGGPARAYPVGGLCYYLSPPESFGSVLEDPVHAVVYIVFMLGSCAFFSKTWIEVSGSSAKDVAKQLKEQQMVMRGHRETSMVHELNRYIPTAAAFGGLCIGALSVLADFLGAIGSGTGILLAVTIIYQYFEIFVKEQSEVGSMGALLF
UniProt P54760: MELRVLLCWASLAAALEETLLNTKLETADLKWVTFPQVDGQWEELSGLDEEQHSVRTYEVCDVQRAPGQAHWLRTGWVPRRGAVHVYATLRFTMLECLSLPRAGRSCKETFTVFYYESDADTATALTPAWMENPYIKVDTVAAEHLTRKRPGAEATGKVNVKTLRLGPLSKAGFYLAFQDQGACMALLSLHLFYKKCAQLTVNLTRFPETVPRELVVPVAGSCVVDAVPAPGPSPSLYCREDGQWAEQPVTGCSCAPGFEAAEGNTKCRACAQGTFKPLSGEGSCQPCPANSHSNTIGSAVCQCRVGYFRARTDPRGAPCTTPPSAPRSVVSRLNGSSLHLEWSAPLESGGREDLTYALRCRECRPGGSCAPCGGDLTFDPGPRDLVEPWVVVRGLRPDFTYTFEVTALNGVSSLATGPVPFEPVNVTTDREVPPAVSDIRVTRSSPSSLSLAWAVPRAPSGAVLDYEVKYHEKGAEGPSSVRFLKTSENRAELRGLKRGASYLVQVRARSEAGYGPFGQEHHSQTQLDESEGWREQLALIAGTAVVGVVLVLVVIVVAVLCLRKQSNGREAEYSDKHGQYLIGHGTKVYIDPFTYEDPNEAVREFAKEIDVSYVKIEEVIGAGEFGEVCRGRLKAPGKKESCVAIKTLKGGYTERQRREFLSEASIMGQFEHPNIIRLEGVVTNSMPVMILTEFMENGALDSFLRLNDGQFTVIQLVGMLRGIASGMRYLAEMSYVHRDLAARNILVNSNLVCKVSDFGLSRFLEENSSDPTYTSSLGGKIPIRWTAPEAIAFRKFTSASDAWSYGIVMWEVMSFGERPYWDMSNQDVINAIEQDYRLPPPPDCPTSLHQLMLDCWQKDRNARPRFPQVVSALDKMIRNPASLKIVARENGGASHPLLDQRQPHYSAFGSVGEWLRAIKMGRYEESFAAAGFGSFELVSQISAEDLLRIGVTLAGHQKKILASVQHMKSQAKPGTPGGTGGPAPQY
UniProt P56945: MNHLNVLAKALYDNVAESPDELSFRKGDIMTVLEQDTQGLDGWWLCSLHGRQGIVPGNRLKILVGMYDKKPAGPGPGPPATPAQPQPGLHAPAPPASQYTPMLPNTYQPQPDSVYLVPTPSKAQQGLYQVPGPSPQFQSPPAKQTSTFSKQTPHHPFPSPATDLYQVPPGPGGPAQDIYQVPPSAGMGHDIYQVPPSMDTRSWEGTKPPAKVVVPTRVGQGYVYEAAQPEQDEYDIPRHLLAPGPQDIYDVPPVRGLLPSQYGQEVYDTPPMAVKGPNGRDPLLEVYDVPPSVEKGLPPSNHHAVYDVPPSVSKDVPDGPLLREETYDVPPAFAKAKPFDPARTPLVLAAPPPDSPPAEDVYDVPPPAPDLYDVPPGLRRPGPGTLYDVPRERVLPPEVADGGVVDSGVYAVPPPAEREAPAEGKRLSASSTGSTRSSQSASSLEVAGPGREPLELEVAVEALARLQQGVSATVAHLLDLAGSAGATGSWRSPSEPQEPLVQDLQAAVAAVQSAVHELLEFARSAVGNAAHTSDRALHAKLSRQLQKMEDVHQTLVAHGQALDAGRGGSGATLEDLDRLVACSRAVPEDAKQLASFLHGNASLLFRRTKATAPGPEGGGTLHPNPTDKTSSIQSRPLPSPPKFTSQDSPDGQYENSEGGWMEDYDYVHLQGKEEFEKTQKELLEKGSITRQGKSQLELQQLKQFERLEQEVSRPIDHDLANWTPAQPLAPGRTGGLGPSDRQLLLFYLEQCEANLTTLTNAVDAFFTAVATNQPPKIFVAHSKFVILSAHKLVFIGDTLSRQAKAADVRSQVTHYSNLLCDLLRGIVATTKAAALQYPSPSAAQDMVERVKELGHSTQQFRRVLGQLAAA
UniProt P56192: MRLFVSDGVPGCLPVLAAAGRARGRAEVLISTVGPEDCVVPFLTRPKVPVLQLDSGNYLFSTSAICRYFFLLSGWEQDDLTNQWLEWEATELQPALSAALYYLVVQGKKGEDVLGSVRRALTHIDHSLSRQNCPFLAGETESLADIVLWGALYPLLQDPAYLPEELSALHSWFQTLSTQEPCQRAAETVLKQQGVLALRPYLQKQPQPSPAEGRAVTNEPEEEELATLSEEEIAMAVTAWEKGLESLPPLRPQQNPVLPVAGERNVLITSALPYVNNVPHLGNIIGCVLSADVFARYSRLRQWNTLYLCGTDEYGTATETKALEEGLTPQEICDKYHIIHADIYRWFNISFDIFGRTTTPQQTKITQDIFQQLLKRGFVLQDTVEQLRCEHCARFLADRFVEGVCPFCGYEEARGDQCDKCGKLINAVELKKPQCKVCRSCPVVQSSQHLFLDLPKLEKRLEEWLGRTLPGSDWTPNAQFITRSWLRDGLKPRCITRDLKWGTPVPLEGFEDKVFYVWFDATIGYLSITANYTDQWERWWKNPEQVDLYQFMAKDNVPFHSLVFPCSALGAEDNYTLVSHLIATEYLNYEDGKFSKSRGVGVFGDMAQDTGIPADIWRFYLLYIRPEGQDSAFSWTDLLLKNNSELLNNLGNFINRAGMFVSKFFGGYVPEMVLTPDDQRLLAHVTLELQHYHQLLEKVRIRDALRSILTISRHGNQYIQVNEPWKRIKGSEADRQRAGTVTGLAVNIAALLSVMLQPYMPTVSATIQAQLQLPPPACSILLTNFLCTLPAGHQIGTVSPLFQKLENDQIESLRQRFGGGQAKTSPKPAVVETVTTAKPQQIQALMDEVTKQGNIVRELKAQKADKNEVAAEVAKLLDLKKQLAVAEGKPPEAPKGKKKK
UniProt P51858: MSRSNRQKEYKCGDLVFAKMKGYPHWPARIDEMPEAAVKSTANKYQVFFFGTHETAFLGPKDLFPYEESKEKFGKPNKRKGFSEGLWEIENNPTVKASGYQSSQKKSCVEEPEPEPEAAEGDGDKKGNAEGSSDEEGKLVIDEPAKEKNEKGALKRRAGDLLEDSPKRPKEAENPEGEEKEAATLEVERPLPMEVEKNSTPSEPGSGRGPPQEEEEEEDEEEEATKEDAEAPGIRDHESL
UniProt P51812, whole entry: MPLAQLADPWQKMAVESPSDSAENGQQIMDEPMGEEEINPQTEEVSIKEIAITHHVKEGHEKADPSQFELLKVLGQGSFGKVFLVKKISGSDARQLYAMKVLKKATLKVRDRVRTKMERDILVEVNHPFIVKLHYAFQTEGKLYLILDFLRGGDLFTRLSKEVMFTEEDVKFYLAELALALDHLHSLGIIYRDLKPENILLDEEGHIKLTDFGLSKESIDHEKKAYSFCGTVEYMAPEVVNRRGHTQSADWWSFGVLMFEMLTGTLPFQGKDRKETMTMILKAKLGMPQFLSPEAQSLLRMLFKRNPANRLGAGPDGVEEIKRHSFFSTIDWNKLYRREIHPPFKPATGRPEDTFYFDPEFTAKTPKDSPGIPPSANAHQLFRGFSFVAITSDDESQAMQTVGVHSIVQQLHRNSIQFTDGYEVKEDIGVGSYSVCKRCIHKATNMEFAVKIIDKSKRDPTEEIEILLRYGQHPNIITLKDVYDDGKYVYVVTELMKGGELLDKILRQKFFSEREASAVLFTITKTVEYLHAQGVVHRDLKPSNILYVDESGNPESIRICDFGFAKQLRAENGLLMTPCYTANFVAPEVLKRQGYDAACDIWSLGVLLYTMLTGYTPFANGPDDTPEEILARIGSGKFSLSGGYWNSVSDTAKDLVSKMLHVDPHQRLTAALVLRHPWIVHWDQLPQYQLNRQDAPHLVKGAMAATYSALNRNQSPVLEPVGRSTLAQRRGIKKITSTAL
UniProt P53041: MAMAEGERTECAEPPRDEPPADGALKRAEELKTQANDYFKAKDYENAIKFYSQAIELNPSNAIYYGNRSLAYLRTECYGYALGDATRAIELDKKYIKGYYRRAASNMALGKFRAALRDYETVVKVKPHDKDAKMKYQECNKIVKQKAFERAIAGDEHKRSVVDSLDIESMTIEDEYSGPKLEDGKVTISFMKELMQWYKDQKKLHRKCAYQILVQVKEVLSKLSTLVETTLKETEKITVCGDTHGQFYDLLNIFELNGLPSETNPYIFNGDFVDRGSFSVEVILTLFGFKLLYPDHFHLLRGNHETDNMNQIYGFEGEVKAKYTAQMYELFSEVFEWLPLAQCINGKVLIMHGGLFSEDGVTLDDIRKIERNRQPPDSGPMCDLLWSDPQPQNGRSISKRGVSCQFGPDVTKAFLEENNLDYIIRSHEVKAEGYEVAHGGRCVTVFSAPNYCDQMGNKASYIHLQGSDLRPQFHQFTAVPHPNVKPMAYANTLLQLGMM
UniProt P54105: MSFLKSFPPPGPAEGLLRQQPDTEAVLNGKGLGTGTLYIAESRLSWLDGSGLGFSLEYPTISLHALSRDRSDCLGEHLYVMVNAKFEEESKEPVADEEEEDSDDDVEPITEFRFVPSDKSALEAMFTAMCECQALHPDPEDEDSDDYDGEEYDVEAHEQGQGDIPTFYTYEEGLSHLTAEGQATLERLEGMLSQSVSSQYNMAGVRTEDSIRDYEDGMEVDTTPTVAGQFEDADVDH
UniProt P63092, whole entry: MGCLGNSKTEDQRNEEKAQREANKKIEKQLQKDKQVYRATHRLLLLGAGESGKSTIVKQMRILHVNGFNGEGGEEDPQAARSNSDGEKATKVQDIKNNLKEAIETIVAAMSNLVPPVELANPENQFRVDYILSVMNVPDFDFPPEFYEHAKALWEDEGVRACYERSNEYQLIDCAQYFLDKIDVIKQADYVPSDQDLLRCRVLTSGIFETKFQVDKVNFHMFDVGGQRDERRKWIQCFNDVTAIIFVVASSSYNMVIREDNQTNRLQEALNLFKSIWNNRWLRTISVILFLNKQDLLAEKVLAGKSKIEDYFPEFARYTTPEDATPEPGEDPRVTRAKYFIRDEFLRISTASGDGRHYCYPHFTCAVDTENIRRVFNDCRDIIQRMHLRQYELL
UniProt P56937: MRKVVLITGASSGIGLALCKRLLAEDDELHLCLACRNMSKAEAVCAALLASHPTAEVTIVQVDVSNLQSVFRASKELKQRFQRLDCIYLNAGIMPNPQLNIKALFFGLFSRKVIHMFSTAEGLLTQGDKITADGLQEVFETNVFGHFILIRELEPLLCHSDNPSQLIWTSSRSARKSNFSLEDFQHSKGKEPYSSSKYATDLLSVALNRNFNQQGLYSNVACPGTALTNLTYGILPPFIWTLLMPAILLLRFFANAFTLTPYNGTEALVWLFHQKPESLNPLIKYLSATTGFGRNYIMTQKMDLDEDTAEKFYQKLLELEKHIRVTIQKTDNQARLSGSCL

Compound: CCc1cnccc1C(=O)Nc1cc2c(cc1F)NC(=O)CC2
Assay: melting temperature shift (DMSO Tm minus MBE1-treated Tm) in cellular thermal proteome profiling; higher = less thermal stabilization by MBE1 (negative = stabilized by MBE1)
Conditions: A375

| Target | melting temperature shift (MBE1 concentration: 100 nM) [°C] | melting temperature shift (MBE1 concentration: 1 uM) [°C] |
| --- | --- | --- |
| NCBP2 (UniProt P52298) | 0.189 | 9.96 |
| UniProt P56282 | -0.448 | -0.0128 |
| RPL26 (UniProt P61254) | -0.501 | -0.232 |
| RPL23A (UniProt P62750) | -0.971 | -0.0183 |
| SEC61A1 (UniProt P61619) | -0.845 | 0.0958 |
| UniProt P60709 | -0.983 | 1.61 |
| UniProt P61601 | -1.31 | 1.04 |
| EPHB4 (UniProt P54760) | -1.6 | -1.35 |
| BCAR1 (UniProt P56945) | -0.781 | -0.506 |
| MARS (UniProt P56192) | 0.243 | -0.0855 |
| HDGF (UniProt P51858) | -1.05 | -0.309 |
| RPS6KA3 (UniProt P51812) | 0.189 | -0.263 |
| RAN (UniProt P62826) | -1.24 | -0.85 |
| PPP5C (UniProt P53041) | -0.287 | 0.83 |
| RPS16 (UniProt P62249) | -0.562 | 0.742 |
| CLNS1A (UniProt P54105) | -0.556 | 0.503 |
| UniProt P63092 | -0.959 | 0.0201 |
| HSD17B7 (UniProt P56937) | -0.446 | 0.195 |

Copied from the list.
Value of PPP5C (UniProt P53041) under melting temperature shift (MBE1 concentration: 100 nM) [°C]: -0.287
Value of SEC61A1 (UniProt P61619) under melting temperature shift (MBE1 concentration: 1 uM) [°C]: 0.0958
